Reference: publication doi:10.1101/2021.12.08.471779
Residue numbers refer to the chain shown, from its start. These are yes or no findings as the source states them, for the method shown. Binding seen in cells or lysates may run through a third protein. Some results given as binding are weak or reduced against the parent protein; the word gives no strength.

Protein sequences, listed by entry. Tags and fused reporters are not part of them. Lines headed by an entry give the natural chain unless they say otherwise; changes in a name come on top.
UniProt P05825, whole entry, looked up, stated change not applied: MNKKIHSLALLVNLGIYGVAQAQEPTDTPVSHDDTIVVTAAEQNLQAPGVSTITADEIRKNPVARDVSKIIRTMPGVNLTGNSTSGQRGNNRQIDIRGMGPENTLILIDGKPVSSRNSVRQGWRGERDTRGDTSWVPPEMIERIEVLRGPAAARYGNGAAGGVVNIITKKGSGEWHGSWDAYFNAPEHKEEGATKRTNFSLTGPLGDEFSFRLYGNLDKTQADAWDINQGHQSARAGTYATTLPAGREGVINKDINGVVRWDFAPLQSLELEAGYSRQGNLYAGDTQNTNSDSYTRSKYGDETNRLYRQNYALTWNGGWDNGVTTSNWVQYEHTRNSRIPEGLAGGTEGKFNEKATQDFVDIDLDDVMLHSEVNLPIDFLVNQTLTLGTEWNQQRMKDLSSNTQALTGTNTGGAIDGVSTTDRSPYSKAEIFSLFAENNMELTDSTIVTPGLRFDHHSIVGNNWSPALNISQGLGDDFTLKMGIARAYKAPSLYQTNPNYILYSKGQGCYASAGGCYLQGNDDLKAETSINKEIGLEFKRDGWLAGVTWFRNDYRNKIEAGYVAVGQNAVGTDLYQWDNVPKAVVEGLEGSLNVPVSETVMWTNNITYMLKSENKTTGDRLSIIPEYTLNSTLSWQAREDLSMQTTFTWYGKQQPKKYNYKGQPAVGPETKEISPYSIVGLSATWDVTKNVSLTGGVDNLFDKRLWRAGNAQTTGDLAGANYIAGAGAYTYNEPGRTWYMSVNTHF
UniProt P02929, whole entry, looked up, stated change not applied: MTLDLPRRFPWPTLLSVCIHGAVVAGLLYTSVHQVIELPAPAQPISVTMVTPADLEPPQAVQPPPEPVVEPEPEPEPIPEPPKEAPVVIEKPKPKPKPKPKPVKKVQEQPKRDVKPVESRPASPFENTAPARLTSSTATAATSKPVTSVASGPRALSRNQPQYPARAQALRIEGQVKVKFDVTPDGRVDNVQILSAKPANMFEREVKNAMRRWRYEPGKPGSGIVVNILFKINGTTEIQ

Columns and labels:
Assay in all cases: cross-linking
[1] = biological target: T1, FepA D12C (Escherichia coli K-12) (UniProt P05825)
T1 sequence: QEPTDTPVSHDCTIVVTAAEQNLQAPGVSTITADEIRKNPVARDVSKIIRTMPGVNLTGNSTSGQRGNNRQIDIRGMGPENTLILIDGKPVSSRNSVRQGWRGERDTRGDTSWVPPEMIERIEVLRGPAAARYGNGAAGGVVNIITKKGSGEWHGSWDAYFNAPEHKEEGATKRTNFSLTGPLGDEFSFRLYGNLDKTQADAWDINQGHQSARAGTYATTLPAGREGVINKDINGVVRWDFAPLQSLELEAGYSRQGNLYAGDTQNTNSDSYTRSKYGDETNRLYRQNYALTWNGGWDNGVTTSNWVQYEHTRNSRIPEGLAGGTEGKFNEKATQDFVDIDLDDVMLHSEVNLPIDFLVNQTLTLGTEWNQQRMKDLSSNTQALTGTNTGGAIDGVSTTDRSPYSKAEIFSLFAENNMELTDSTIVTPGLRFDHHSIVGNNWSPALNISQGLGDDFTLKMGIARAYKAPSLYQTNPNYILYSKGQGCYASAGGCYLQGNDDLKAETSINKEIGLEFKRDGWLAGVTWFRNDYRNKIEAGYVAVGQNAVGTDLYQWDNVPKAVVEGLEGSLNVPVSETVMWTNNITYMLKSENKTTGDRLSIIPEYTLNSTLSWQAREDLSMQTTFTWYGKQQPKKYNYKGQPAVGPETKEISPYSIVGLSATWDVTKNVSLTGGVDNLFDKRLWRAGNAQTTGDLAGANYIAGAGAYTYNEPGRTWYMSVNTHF

[2] = biological target: T2, FepA L85C (Escherichia coli K-12) (UniProt P05825)
T2 sequence: T1 sequence with C12D, L85C

[3] = biological target: T3, FepA D185C (Escherichia coli K-12) (UniProt P05825)
T3 sequence: T1 sequence with C12D, D185C

TonB C18G A209C (from UniProt P02929 1-239)
binding [1]: no binding | binding [2]: no binding | binding [3]: no binding

TonB C18G H20A N208C (from UniProt P02929 1-239)
binding [1]: no binding

TonB C18G H20A V206C (from UniProt P02929 1-239)
binding [1]: no binding

TonB C18G H20A R212C (from UniProt P02929 1-239)
binding [1]: no binding

TonB C18G R214C (from UniProt P02929 1-239)
binding [2]: no binding | binding [3]: no binding

TonB C18G H20A R204C (from UniProt P02929 1-239)
binding [1]: no binding

TonB C18G R204C (from UniProt P02929 1-239)
binding [1]: binds | binding [2]: no binding | binding [3]: no binding

TonB C18G H20A A209C (from UniProt P02929 1-239)
binding [1]: no binding

TonB C18G R212C (from UniProt P02929 1-239)
binding [1]: binds | binding [2]: no binding | binding [3]: no binding

TonB C18G M201C (from UniProt P02929 1-239)
binding [2]: no binding | binding [3]: no binding

TonB C18G N208C (from UniProt P02929 1-239)
binding [1]: binds | binding [2]: no binding | binding [3]: no binding

TonB C18G Q160C (from UniProt P02929 1-239)
binding [2]: no binding | binding [3]: no binding

TonB C18G V206C (from UniProt P02929 1-239)
binding [1]: no binding | binding [2]: no binding | binding [3]: no binding
